Data taken from ChEMBL document CHEMBL3988442, “University of Dundee, Small-Polar-MMV Screening Library” (2021).

Protein sequences, listed by entry. Tags and fused reporters are not part of them.
UniProt E9BF75, entry or part of it: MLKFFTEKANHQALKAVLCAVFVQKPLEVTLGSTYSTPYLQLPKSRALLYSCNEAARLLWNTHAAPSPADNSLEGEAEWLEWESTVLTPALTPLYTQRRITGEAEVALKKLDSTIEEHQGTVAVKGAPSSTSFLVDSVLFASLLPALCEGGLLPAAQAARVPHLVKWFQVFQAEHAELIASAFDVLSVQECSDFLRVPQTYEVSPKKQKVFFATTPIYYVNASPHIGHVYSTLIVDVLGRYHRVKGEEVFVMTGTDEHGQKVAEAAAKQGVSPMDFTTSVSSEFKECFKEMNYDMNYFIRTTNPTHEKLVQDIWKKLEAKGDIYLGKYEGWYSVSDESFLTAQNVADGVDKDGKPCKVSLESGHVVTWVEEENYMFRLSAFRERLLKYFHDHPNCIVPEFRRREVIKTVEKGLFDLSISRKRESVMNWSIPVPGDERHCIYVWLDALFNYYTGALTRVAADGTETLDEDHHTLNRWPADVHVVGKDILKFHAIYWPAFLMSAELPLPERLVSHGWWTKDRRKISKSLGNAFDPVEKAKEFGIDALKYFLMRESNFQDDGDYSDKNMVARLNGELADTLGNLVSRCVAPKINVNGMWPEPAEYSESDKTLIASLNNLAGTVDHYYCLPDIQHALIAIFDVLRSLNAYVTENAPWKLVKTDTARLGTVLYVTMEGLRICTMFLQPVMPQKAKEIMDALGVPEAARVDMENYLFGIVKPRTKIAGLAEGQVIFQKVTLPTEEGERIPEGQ

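Methionyl-tRNA synthetase (putative), Leishmania donovani (UniProt E9BF75). Primary screen of methionyl-tRNA synthetase; the read-out is not stated. The test concentration is not given. The values are filed as inhibition. About 68,000 compounds were tested under these conditions; 0.035% (about 24) showed 50% or more at least once.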

Results are percentages, as filed. The controls that fix the scale are not given in the record; negative values are as filed. Compounds were drawn at random from those tested, without regard to their results.

* O=C(c1csc(-c2cnccn2)n1)N1CCCC1Cn1cccn1 (stereo unspecified) : 16.48%
* CCN1CCc2c(c(COC)nn2C)C1 : 4.444%
* CC(C)c1nc2n(n1)CC(NCc1nnnn1C1CC1)CC2 (stereo unspecified) : 9.15%
* CC(CS(C)(=O)=O)NCc1cc(Cl)ccc1F (stereo unspecified) : -2.821%
* CC(CN1CCC2(CC1)N=C(c1cccnc1)NC2=O)c1ccccc1 (stereo unspecified) : 13.7%
* CC(C)N1CCC(Cn2cc(C(N)=O)cn2)CC1 : 9.006%
* CNC(=O)C1CCN(C(=O)NCCc2ccc(Cl)s2)CC1 : 25.5%
* O=C(Cc1ccccn1)N1CCc2ncnc(NC3CCC3)c2CC1 : 14.12%
* Cn1ccnc1CN1CCC2(CCC(=O)N2CCN2CCCC2)CC1 : 8.493%
* Cc1cc(NCC2CCS(=O)(=O)C2)n2nc(C)cc2n1 (stereo unspecified) : 4.478%
* COc1cccc(CNCc2nc3ccccc3c(=O)[nH]2)c1 : 12.03%
* CC(C)(C)c1n[nH]cc1CNC1CCC(C(F)(F)F)CC1 (stereo unspecified) : 15.48%
* O=C(N1CCC(OCc2ccccn2)CC1)C1(c2ccc(F)cc2)CC1 : 12.63%
* Cc1cc(NCCn2cccn2)n2ncnc2n1 : 5.455%
* COc1ccc(C(=O)N2C[C@@H](CN3CCCCC3)[C@@H](CO)C2)cc1Cl : 13.41%
* NC(=O)c1ccc(NC(=O)c2ccncc2Cl)cn1 : 10.08%
* Cn1cc(Cl)cc1C(=O)N1CCN(Cc2ccsc2)CC1 : 13.27%
* CO[C@H]1CN(C(=O)c2cc3ccccc3[nH]2)CC[C@H]1N : 7.572%
* CCN1CC2(CCOCC2)c2cc(NS(=O)(=O)CC)ccc21 : 4.106%
* CC(C)(C)n1c(NC(=O)CNC(=O)NC2CC2)nc2ccccc21 : 13.09%
* Cn1c(-c2cccs2)nn(CCNS(=O)(=O)c2ccccc2Cl)c1=O : 10.79%
* CN(C)c1nc2c(c(NCc3nnc4n3CCCCC4)n1)CCNC2 : 26.89%
* CNc1nc(C(=O)N2CCCC(c3nccn3CC3CCC3)C2)cs1 (stereo unspecified) : 12.32%
* CCc1ncncc1C(=O)Nc1ccc2ccn(CCN(C)C)c2c1 : 20.77%
* COC(=O)NC1(C(=O)Nc2ccc(-c3cc[nH]n3)cc2)CCCC1 : 13.04%
* O=S(=O)(CCCN1CCCCC1Cn1cncn1)c1ccccc1 (stereo unspecified) : 25.14%
* COCCC(=O)N1CCCC2(CCCN2Cc2ccccc2F)C1 (stereo unspecified) : 12.57%
* O=C([C@@H]1C[C@@H]2CCN(Cc3ccc4c(c3)OCO4)C[C@@H]2O1)N1CCCC1 : 0%
* CC(=O)N[C@@H]1CN(C(=O)c2cc3ccccc3[nH]2)C[C@H]1c1ccc(C)o1 : 21.77%
* O=C(COc1ccccc1)N1CCC[C@]2(C[C@H](OCC3CC3)CO2)C1 : 17.65%
* Cc1csc(C2(NCC(O)COC(C)C)CCCC2)n1 (stereo unspecified) : 0.838%
* CN(C(=O)c1ccccc1F)[C@@H]1CC[C@@H](O)[C@@H]1O : 13.12%
* FC(F)(F)c1ccc(CN2CCN(Cc3cscn3)CC2)cc1 : 9.966%
* Cc1cnn(CCC(=O)NS(=O)(=O)N2CCc3ccccc32)c1 : 13.13%
* Cc1cc(CNc2ccc(-c3nc(C4CC4)no3)cn2)no1 : 8.042%

Some entries from above, unchanged:

{"smiles": "O=S(=O)(CCCN1CCCCC1Cn1cncn1)c1ccccc1", "stereo": "stereo unspecified", "Inhibition": 25.14}
{"smiles": "Cn1ccnc1CN1CCC2(CCC(=O)N2CCN2CCCC2)CC1", "Inhibition": 8.493}
{"smiles": "CC(C)c1nc2n(n1)CC(NCc1nnnn1C1CC1)CC2", "stereo": "stereo unspecified", "Inhibition": 9.15}